{
  "source": "the supplement of paper PMC8728848",
  "test_in_all_cases": "glycan array binding signal (z-score within array); higher = stronger binding",
  "details_in_all_cases": "glycan notation: IUPAC condensed, linker removed",
  "key": {"[1]": {"molecular_target": "Fuc(a1-2)Gal", "method_in_brief": "(§1)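 The binding signal is a Z-score computed within each array and averaged over linkers. Arrays of the same protein sequence at different concentrations or buffers were also averaged together. Data originate from 3228 arrays in the Consortium for Functional Glycomics database, kept only where the protein sequence was available.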"}, "[2]": {"molecular_target": "Fuc(a1-2)Gal(b1-3)GalNAc", "method_in_brief": "as §1"}, "[3]": {"molecular_target": "Fuc(a1-2)Gal(b1-3)GalNAc(a1-3)[Fuc(a1-2)]Gal(b1-4)Glc", "method_in_brief": "as §1"}, "[4]": {"molecular_target": "Fuc(a1-2)Gal(b1-3)GalNAc(a1-3)[Fuc(a1-2)]Gal(b1-4)GlcNAc", "method_in_brief": "as §1"}, "[5]": {"molecular_target": "Fuc(a1-2)Gal(b1-3)GalNAc(b1-3)Gal", "method_in_brief": "as §1"}, "[6]": {"molecular_target": "Fuc(a1-2)Gal(b1-3)GalNAc(b1-3)Gal(a1-4)Gal(b1-4)Glc", "method_in_brief": "as §1"}, "[7]": {"molecular_target": "Fuc(a1-2)Gal(b1-3)GalNAc(b1-4)[Neu5Ac(a2-3)]Gal(b1-4)Glc", "method_in_brief": "as §1"}, "[8]": {"molecular_target": "Fuc(a1-2)Gal(b1-3)GlcNAc", "method_in_brief": "as §1"}, "[9]": {"molecular_target": "Fuc(a1-2)Gal(b1-3)GlcNAc(b1-2)Man(a1-3)[Fuc(a1-2)Gal(b1-3)GlcNAc(b1-2)Man(a1-6)]Man(b1-4)GlcNAc(b1-4)GlcNAc", "method_in_brief": "as §1"}, "[10]": {"molecular_target": "Fuc(a1-2)Gal(b1-3)GlcNAc(b1-2)Man(a1-3)[Fuc(a1-2)Gal(b1-3)GlcNAc(b1-2)Man(a1-6)]Man(b1-4)GlcNAc(b1-4)[Fuc(a1-6)]GlcNAc", "method_in_brief": "as §1"}, "[11]": {"molecular_target": "Fuc(a1-2)Gal(b1-3)GlcNAc(b1-3)Gal(b1-4)Glc", "method_in_brief": "as §1"}, "[12]": {"molecular_target": "Fuc(a1-2)Gal(b1-3)GlcNAc(b1-3)GalNAc", "method_in_brief": "as §1"}, "[13]": {"molecular_target": "Fuc(a1-2)Gal(b1-3)GlcNAc(b1-3)[Fuc(a1-2)Gal(b1-3)GlcNAc(b1-6)]GalNAc", "method_in_brief": "as §1"}, "[14]": {"molecular_target": "Fuc(a1-2)Gal(b1-3)GlcNAc(b1-3)[Gal(b1-4)GlcNAc(b1-6)]Gal(b1-4)Glc", "method_in_brief": "as §1"}, "[15]": {"molecular_target": "Fuc(a1-2)Gal(b1-3)GlcNAc(b1-3)[Neu5Ac(a2-6)Gal(b1-4)GlcNAc(b1-6)]Gal(b1-4)Glc", "method_in_brief": "as §1"}, "[16]": {"molecular_target": "Fuc(a1-2)Gal(b1-3)GlcNAc6S", "method_in_brief": "as §1"}, "[17]": {"molecular_target": "Fuc(a1-2)Gal(b1-3)[Fuc(a1-4)]GlcNAc", "method_in_brief": "as §1"}, "[18]": {"molecular_target": "Fuc(a1-2)Gal(b1-3)[Fuc(a1-4)]GlcNAc(b1-2)Man(a1-3)[Fuc(a1-2)Gal(b1-3)[Fuc(a1-4)]GlcNAc(b1-2)Man(a1-3)]Man(b1-4)GlcNAc(b1-4)GlcNAc", "method_in_brief": "as §1"}, "[19]": {"molecular_target": "Fuc(a1-2)Gal(b1-3)[Fuc(a1-4)]GlcNAc(b1-2)Man(a1-3)[Fuc(a1-2)Gal(b1-3)[Fuc(a1-4)]GlcNAc(b1-2)Man(a1-6)]Man(b1-4)GlcNAc(b1-4)[Fuc(a1-6)]GlcNAc(b1-4)[Fuc(a1-6)]GlcNAc", "method_in_brief": "as §1"}, "[20]": {"molecular_target": "Fuc(a1-2)Gal(b1-3)[Fuc(a1-4)]GlcNAc(b1-3)[Fuc(a1-3)[Gal(b1-4)]GlcNAc(b1-6)]Gal(b1-4)Glc", "method_in_brief": "as §1"}, "[21]": {"molecular_target": "Fuc(a1-2)Gal(b1-3)[Fuc(a1-4)]GlcNAc(b1-3)[Gal(b1-4)GlcNAc(b1-6)]Gal(b1-4)Glc", "method_in_brief": "as §1"}, "[22]": {"molecular_target": "Fuc(a1-2)Gal(b1-4)Fuc(a1-3)]GlcNAc(b1-2)Man(a1-3)[Fuc(a1-2)Gal(b1-4)[Fuc(a1-3)]GlcNAc(b1-2)Man(a1-6)]Man(b1-4)GlcNAc(b1-4)GlcNAc", "method_in_brief": "as §1"}, "[23]": {"molecular_target": "Fuc(a1-2)Gal(b1-4)Glc", "method_in_brief": "as §1"}, "[24]": {"molecular_target": "Fuc(a1-2)Gal(b1-4)Glc6S", "method_in_brief": "as §1"}, "[25]": {"molecular_target": "Fuc(a1-2)Gal(b1-4)GlcNAc", "method_in_brief": "as §1"}, "[26]": {"molecular_target": "Fuc(a1-2)Gal(b1-4)GlcNAc(b1-2)Man", "method_in_brief": "as §1"}, "[27]": {"molecular_target": "Fuc(a1-2)Gal(b1-4)GlcNAc(b1-2)Man(a1-3)[Fuc(a1-2)Gal(b1-4)GlcNAc(b1-2)Man(a1-6)]Man(b1-4)GlcNAc(b1-4)GlcNAc", "method_in_brief": "as §1"}, "[28]": {"molecular_target": "Fuc(a1-2)Gal(b1-4)GlcNAc(b1-2)Man(a1-3)[Fuc(a1-2)Gal(b1-4)GlcNAc(b1-2)Man(a1-6)]Man(b1-4)GlcNAc(b1-4)[Fuc(a1-6)]GlcNAc", "method_in_brief": "as §1"}, "[29]": {"molecular_target": "Fuc(a1-2)Gal(b1-4)GlcNAc(b1-2)[Fuc(a1-2)Gal(b1-4)GlcNAc(b1-4)]Man(a1-3)[Fuc(a1-2)Gal(b1-4)GlcNAc(b1-2)Man(a1-6)]Man(b1-4)GlcNAc(b1-4)GlcNAc", "method_in_brief": "as §1"}, "[30]": {"molecular_target": "Fuc(a1-2)Gal(b1-4)GlcNAc(b1-3)Gal(b1-4)GlcNAc", "method_in_brief": "as §1"}},
  "note": "The list shows a part of the results.",
  "data": [
    {"binder": "Erv46-EDTA (Saccharomyces cerevisiae), P39727 (protein) MKFLVNVALVFMVVYISYIYAAAPEHHHHHHDYDIPTTENLYFQGAMDSVVTRPQLVVDRDRHAKLELNMDVTFPSMPCDLVNLDIMDDSGEMQLDILDAGFTMSRLNSEGRPVGDATELHVGGNGDGTAPVNNDPNYCGPCYGAKDQSQNENLAQEEKVCCQDCDAVRSAYLEAGWAFFDGKNIEQCEREGYVSKINEHLNEGCRIKGSAQINRIQGNLHFAPGKPYQNAYGHFHDTSLYDKTSNLNFNHIINHLSFGKPIQSHSKLLGNDKRHGGAVVATSPLDGRQVFPDRNTHFHQFSYFAKIVPTRYEYLDNVVIETAQFSATFHSRPLAGGRDKDHPNTLHVRGGIPGMFVFFEMSPLKVINKEQ", "values": [
      {"measurement": "glycan array binding signal (z-score)", "setting": "[1]", "result": -0.338},
      {"measurement": "glycan array binding signal (z-score)", "setting": "[2]", "result": -0.294},
      {"measurement": "glycan array binding signal (z-score)", "setting": "[3]", "result": 0.819},
      {"measurement": "glycan array binding signal (z-score)", "setting": "[4]", "result": -0.011},
      {"measurement": "glycan array binding signal (z-score)", "setting": "[5]", "result": -0.08},
      {"measurement": "glycan array binding signal (z-score)", "setting": "[6]", "result": -0.455},
      {"measurement": "glycan array binding signal (z-score)", "setting": "[7]", "result": -0.446},
      {"measurement": "glycan array binding signal (z-score)", "setting": "[8]", "result": -0.279},
      {"measurement": "glycan array binding signal (z-score)", "setting": "[9]", "result": 0.589},
      {"measurement": "glycan array binding signal (z-score)", "setting": "[10]", "result": 0.115},
      {"measurement": "glycan array binding signal (z-score)", "setting": "[11]", "result": -0.225},
      {"measurement": "glycan array binding signal (z-score)", "setting": "[12]", "result": -0.589},
      {"measurement": "glycan array binding signal (z-score)", "setting": "[13]", "result": 0.198},
      {"measurement": "glycan array binding signal (z-score)", "setting": "[14]", "result": -0.078},
      {"measurement": "glycan array binding signal (z-score)", "setting": "[15]", "result": -0.118},
      {"measurement": "glycan array binding signal (z-score)", "setting": "[16]", "result": -0.083},
      {"measurement": "glycan array binding signal (z-score)", "setting": "[17]", "result": 0.032},
      {"measurement": "glycan array binding signal (z-score)", "setting": "[18]", "result": 0.467},
      {"measurement": "glycan array binding signal (z-score)", "setting": "[19]", "result": 2.15},
      {"measurement": "glycan array binding signal (z-score)", "setting": "[20]", "result": -0.246},
      {"measurement": "glycan array binding signal (z-score)", "setting": "[21]", "result": -0.191},
      {"measurement": "glycan array binding signal (z-score)", "setting": "[22]", "result": 3.11},
      {"measurement": "glycan array binding signal (z-score)", "setting": "[23]", "result": -0.572},
      {"measurement": "glycan array binding signal (z-score)", "setting": "[24]", "result": 0.488},
      {"measurement": "glycan array binding signal (z-score)", "setting": "[25]", "result": -0.508},
      {"measurement": "glycan array binding signal (z-score)", "setting": "[26]", "result": -0.301},
      {"measurement": "glycan array binding signal (z-score)", "setting": "[27]", "result": 1.11},
      {"measurement": "glycan array binding signal (z-score)", "setting": "[28]", "result": 0.705},
      {"measurement": "glycan array binding signal (z-score)", "setting": "[29]", "result": 1.06},
      {"measurement": "glycan array binding signal (z-score)", "setting": "[30]", "result": -0.056}
    ]}
  ]
}
